The source made the active and inactive calls. The rule behind the calls is not given here. Bounds are passed on as bounds.

Chains of the proteins cited; added tags and fusions are not shown. Lines headed by an entry give the natural chain unless they say otherwise; changes in a name come on top.
UniProt P17861: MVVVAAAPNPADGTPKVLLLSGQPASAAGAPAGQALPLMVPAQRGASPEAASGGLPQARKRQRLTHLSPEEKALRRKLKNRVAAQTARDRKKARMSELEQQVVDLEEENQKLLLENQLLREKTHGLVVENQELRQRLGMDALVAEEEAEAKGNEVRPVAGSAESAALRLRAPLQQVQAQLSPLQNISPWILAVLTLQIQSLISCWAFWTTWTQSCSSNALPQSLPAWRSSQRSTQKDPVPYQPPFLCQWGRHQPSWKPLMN

In this assay the target is X-box-binding protein 1 (Homo sapiens) (UniProt P17861). Kind of assay: XBP1 reporter suppression in cells – counter-screen, dose response (AID 504313).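 Note: CHO cells carrying an XBP1 reporter stimulated with tunicamycin; potency is for inhibition of the tunicamycin-induced reporter signal.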 Particulars: XBP1 reporter cell assay, percent of control. In general terms: Counterscreens check selectivity or assay interference.
Regarding `COc1cc(CN2CCc3ccccc3C2)ccc1O`, the IC50 – broadly, the concentration that inhibits the measured activity by half – is inactive: > 10 µM.
For `COc1ccc2[nH]c3c(C)c4ccncc4c(C)c3c2c1` the value was inactive: > 10 µM; for `CC(C)(C)C1CCC2(CC1)C(C#N)=C(SCC(=O)Nc1ccccc1)NC(=O)C2C#N` (stereo not drawn), “inactive”.

The record behind these values is PubChem BioAssay AID504313 (Emory University Molecular Libraries Screening Center, 2011).
